From PMC11176741
These are yes or no findings as the source states them, for the method shown. In cells and extracts the contact can be indirect. Some binding calls cover weakened binding; strength is not graded here.

The chains behind the UniProt entries cited, without tags or fusion partners.
UniProt Q9Y297: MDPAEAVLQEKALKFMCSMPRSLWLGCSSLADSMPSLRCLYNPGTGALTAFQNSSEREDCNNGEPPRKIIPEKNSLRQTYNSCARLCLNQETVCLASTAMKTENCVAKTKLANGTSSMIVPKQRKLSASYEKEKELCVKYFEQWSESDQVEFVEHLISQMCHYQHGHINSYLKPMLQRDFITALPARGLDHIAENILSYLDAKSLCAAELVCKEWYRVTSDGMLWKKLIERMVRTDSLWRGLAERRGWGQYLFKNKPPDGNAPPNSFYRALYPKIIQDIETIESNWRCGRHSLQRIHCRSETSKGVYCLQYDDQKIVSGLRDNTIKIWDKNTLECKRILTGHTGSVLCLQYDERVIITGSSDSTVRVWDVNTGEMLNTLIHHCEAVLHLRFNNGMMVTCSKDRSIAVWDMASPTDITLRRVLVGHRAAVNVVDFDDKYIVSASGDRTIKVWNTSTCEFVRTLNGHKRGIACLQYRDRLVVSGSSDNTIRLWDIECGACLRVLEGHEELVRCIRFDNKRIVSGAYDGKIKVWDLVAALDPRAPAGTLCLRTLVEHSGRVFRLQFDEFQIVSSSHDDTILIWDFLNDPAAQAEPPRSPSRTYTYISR
UniProt Q96DH6: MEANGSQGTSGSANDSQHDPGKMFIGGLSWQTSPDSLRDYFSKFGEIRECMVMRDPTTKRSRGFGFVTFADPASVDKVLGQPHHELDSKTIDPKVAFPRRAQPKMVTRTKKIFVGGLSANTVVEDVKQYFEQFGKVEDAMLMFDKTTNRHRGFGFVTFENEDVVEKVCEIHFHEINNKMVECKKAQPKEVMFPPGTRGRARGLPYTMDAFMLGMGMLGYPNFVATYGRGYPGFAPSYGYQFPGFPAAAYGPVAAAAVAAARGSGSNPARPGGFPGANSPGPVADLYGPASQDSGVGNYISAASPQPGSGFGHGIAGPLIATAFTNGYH

Molecular target: β-transducin repeat containing protein (BTRC) E3 ubiquitin ligase, HA-tagged (UniProt Q9Y297)
Experiment: co-IP; IP with anti-HA antibody from KYSE150 cells transfected with HA-BTRC and Flag-MSI2, without circMALAT1 overexpression; MG132 (10 µM) for 12 h before harvesting; 1% NP-40 lysis buffer, 4°C, Protein A/G agarose beads; immunoblot

binding: binds
Substance: Musashi RNA Binding Protein 2 (MSI2), Flag-tagged (from UniProt Q96DH6 1-328)
